According to article doi:10.1101/724518:
Results are given in words; binding and its absence hold for the method and conditions named. Binding seen in cells or lysates may run through a third protein. Some binding calls cover weakened binding; strength is not graded here. Sequences can lack the tags named with a protein.

Experiments:
[1] = biological target: T1, GUN1-GFP (35S::GUN1-GFP, expressed in Arabidopsis cotyledons) (Arabidopsis thaliana) (UniProt Q9SIC9); assay: co-IP
T1 sequence: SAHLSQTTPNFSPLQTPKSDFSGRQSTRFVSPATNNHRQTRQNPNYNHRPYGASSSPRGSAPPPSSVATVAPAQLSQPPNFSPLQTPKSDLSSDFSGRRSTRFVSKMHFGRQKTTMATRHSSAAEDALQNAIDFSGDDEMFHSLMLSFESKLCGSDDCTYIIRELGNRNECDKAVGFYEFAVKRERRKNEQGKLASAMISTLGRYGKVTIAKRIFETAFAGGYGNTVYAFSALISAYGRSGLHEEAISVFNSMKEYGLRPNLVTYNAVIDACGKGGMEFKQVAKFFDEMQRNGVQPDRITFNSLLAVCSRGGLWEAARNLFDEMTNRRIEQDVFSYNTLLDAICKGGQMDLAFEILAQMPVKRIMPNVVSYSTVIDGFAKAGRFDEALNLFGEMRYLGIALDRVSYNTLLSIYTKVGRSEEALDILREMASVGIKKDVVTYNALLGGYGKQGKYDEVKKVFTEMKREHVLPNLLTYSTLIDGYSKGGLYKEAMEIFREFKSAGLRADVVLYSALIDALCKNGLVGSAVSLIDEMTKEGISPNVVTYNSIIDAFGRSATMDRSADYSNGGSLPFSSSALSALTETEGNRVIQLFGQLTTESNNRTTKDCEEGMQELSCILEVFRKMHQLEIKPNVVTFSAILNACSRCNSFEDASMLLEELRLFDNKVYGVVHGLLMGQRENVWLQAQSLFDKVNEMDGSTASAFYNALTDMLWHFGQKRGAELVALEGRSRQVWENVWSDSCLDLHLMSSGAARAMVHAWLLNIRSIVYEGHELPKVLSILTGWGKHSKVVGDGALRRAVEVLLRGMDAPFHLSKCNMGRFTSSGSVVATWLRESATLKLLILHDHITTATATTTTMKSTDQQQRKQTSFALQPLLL

[2] = biological target: T2, GUN1-GFP protein chimera (transiently expressed in tobacco leaves) (Arabidopsis thaliana) (UniProt Q9SIC9); assay: co-IP
T2 sequence: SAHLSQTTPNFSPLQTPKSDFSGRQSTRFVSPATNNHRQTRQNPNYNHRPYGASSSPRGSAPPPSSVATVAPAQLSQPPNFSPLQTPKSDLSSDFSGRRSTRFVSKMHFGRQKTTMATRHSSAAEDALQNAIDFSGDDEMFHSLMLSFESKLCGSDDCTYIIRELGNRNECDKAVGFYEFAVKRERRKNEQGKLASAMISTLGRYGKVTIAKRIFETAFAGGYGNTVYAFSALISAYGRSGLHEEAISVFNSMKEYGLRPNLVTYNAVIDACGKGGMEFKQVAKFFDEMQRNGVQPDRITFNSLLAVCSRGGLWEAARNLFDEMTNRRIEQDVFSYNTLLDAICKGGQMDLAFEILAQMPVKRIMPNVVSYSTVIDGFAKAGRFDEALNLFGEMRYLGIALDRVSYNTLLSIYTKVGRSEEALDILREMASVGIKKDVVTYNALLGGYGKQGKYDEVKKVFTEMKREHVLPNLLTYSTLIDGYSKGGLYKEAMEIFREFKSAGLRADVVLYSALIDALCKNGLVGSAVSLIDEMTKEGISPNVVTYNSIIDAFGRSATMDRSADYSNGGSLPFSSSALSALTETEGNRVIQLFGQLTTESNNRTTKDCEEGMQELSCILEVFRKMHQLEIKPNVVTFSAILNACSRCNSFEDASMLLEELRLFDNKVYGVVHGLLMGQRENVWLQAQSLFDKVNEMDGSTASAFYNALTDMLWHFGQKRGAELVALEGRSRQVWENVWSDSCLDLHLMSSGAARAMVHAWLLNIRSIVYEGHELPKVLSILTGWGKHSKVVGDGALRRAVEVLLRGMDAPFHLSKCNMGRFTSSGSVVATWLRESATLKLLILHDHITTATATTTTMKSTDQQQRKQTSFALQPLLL

Row | Binder | binding [1] | binding [2]
1 | RpoTp, nuclear-encoded plastid RNA polymerase (NEP), endogenous (enzyme, UniProt O24600 96-993) AGTIKGASLIEELENPVERNGLSGRRRLFMQDPPWISALFLKGLSKMVDQTLKIERKDIDKRKFDSLRRRQVKEETEAWERMVDEYRDLEKEMCEKNLAPNLPYVKHMFLGWFQPLKDVIEREQKLQKNKSKKVRAAYAPHIELLPADKMAVIVMHKMMGLVMSGHEDGCIQVVQAAVSIGIAIEQEVRIHNFLKRTRKNNAGDSQEELKEKQLLRKRVNSLIRRKRIIDALKVVKSEGTKPWGRATQAKLGSRLLELLIEAAYVQPPLTQSGDSIPEFRPAFRHRFKTVTKYPGSKLVRRYGVIECDSLLLAGLDKSAKHMLIPYVPMLVPPKRWKGYDKGGYLFLPSYIMRTHGSKKQQDALKDISHKTAHRVFEALDTLGNTKWRVNRNILDVVERLWADGGNIAGLVNREDVPIPEKPSSEDPEELQSWKWSARKANKINRERHSLRCDVELKLSVARKMKDEEGFYYPHNLDFRGRAYPMHPHLNHLSSDLCRGTLEFAEGRPLGKSGLHWLKIHLANLYAGGVEKLSHDARLAFVENHLDDIMDSAENPIHGKRWWLKAEDPFQCLAACVILTQALKSPSPYSVISHLPIHQDGSCNGLQHYAALGRDSFEAAAVNLVAGEKPADVYSEISRRVHEIMKKDSSKDPESNPTAALAKILITQVDRKLVKQTVMTSVYGVTYVGAREQIKRRLEEKGVITDERMLFAAACYSAKVTLAALGEIFEAARAIMSWLGDCAKIIASDNHPVRWITPLGLPVVQPYCRSERHLIRTSLQVLALQREGNTVDVRKQRTAFPPNFVHSLDGTHMMMTAVACREAGLNFAGVHDSYWTHACDVDTMNRILREKFVELYNTPILEDLLQSFQESYPNLVFPPVPKRGDFDLKEVLKSQYFFN | binds | 
2 | RpoTp-RFP protein chimera (transiently expressed in tobacco leaves) (enzyme, UniProt O24600 96-993) AGTIKGASLIEELENPVERNGLSGRRRLFMQDPPWISALFLKGLSKMVDQTLKIERKDIDKRKFDSLRRRQVKEETEAWERMVDEYRDLEKEMCEKNLAPNLPYVKHMFLGWFQPLKDVIEREQKLQKNKSKKVRAAYAPHIELLPADKMAVIVMHKMMGLVMSGHEDGCIQVVQAAVSIGIAIEQEVRIHNFLKRTRKNNAGDSQEELKEKQLLRKRVNSLIRRKRIIDALKVVKSEGTKPWGRATQAKLGSRLLELLIEAAYVQPPLTQSGDSIPEFRPAFRHRFKTVTKYPGSKLVRRYGVIECDSLLLAGLDKSAKHMLIPYVPMLVPPKRWKGYDKGGYLFLPSYIMRTHGSKKQQDALKDISHKTAHRVFEALDTLGNTKWRVNRNILDVVERLWADGGNIAGLVNREDVPIPEKPSSEDPEELQSWKWSARKANKINRERHSLRCDVELKLSVARKMKDEEGFYYPHNLDFRGRAYPMHPHLNHLSSDLCRGTLEFAEGRPLGKSGLHWLKIHLANLYAGGVEKLSHDARLAFVENHLDDIMDSAENPIHGKRWWLKAEDPFQCLAACVILTQALKSPSPYSVISHLPIHQDGSCNGLQHYAALGRDSFEAAAVNLVAGEKPADVYSEISRRVHEIMKKDSSKDPESNPTAALAKILITQVDRKLVKQTVMTSVYGVTYVGAREQIKRRLEEKGVITDERMLFAAACYSAKVTLAALGEIFEAARAIMSWLGDCAKIIASDNHPVRWITPLGLPVVQPYCRSERHLIRTSLQVLALQREGNTVDVRKQRTAFPPNFVHSLDGTHMMMTAVACREAGLNFAGVHDSYWTHACDVDTMNRILREKFVELYNTPILEDLLQSFQESYPNLVFPPVPKRGDFDLKEVLKSQYFFN |  | binds
